Reference: PubChem BioAssay (NCATS)
Inconclusive means that the source gave no clear call. Such entries were picked first, then a sample of the others. A potency beside an inconclusive call is a rough fit, not a confirmed value. Active and inactive are the calls of the source. Calls follow the shape of the dose curve; as a rule, active = well fitted activation curve with a large enough effect; inconclusive = small, poorly fitted or top-dose-only effect, or another doubt; inactive = no such curve, though single readings can be large or run the other way.

biological target: Rap guanine nucleotide exchange factor 3 (Homo sapiens) (UniProt O95398); experiment: Counterscreen qHTS for agonist of cAMP-regulated guanine nucleotide exchange factor 3 (EPAC1) (AID 1645889); settings: EPAC1 Rap1B-BODIPY-GDP exchange, fluorescence; activation: at 154 µM (top of the series) unless noted; also: nearly all actives have a fitted effect of over 40% in size; as to activation: % of control where 0% means no effect
How it was run: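 Rap1B-BODIPY-GDP 250 nM + GDP 50 uM; cpds 7-pt, final 9.74 nM–152 uM (activator mode) or from 7.32 nM upwards (inhibitor mode); RT; FI 480/540 nm at 5 and 30 min, then ± cAMP, reread.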
Potency is read from the fitted curve at half-maximal effect.

**Q.** Which activation does the source give for OC[C@H]1O[C@H](OCCc2ccc(O)cc2)[C@H](O)[C@@H](O)[C@@H]1O here?
**A.** inconclusive: 33.1% [activator]

**Q.** How did the Potency turn out when Cc1cc(S(=O)(=O)Nc2ccccc2C)ccc1F was run?
**A.** inactive

**Q.** Which activation does the source give for O=C(CCCCCl)Nc1c2c(nc3ccccc13)CCC2 here?
**A.** inactive: -2.96% [at 30.8 µM]

**Q.** Which activation does the source give for COc1cccc(C(NC(C)=O)c2nc(-c3csc4ccccc34)cs2)c1 (stereo unspecified) here?
**A.** inactive: 29.4% [at 30.8 µM]

**Q.** COc1cc(/C=C2\SC(=S)N(CC(=O)O)C2=O)ccc1OS(=O)(=O)c1ccc(C)cc1 was tested. Which Potency did it give?
**A.** inactive

**Q.** CCn1c2ccccc2c2cc(NC(=O)CSc3nnc(-c4cccc(C)c4)o3)ccc21 was tested. Which Potency did it give?
**A.** inconclusive: 0.251 µM [activator, full curve, poor fit]

**Q.** Which Potency does the source give for CCOc1ncccc1C(=O)Nc1ccc(C)c(S(=O)(=O)N2CCCCCC2)c1 here?
**A.** inconclusive: 11.2 µM [activator, partial curve, poor fit]

**Q.** Cc1ccc(NC(=O)c2ccc(Cl)c(S(=O)(=O)N3CCc4ccccc43)c2)nc1 was tested. Which activation did it give?
**A.** inconclusive: 45.5% [activator]

**Q.** How did the Potency turn out when Cc1ccc(S(=O)(=O)N2CCC(C(=O)Nc3ccccc3N3CCCCC3)CC2)cc1C was run?
**A.** inconclusive: 3.16 µM [activator, full curve, poor fit]

**Q.** How did the Potency turn out when CCCCN(C(=O)CSc1n[nH]c(-c2ccc(C)cc2)n1)c1c(N)n(CCCC)c(=O)[nH]c1=O was run?
**A.** inconclusive: 20 µM [activator, single point]

**Q.** CC(C)N(C(=O)Nc1ccc2nsnc2c1)C(C)C was tested. Which Potency did it give?
**A.** inconclusive: 1.41 µM [activator, full curve]
